Measurements from paper PMC8933699.
No constants are given. Whether binding was seen depends on the method and setting. In cells and extracts the contact can be indirect. These calls come from enrichment with a bait or labelling near it, and not all partners need be listed.

By UniProt entry, the sequences of proteins in these tests, tags left out.
UniProt Q8TB45: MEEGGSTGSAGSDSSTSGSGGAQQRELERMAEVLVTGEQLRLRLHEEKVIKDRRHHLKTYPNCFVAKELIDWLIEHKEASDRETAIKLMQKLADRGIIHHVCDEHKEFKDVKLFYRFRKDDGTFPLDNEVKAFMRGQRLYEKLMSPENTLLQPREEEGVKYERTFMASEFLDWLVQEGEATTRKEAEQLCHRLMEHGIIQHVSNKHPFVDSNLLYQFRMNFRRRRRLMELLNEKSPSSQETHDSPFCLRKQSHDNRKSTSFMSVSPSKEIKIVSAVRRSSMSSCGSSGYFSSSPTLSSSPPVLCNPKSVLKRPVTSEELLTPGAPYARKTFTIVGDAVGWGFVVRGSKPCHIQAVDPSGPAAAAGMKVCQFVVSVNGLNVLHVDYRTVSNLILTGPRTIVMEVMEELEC
UniProt Q93009: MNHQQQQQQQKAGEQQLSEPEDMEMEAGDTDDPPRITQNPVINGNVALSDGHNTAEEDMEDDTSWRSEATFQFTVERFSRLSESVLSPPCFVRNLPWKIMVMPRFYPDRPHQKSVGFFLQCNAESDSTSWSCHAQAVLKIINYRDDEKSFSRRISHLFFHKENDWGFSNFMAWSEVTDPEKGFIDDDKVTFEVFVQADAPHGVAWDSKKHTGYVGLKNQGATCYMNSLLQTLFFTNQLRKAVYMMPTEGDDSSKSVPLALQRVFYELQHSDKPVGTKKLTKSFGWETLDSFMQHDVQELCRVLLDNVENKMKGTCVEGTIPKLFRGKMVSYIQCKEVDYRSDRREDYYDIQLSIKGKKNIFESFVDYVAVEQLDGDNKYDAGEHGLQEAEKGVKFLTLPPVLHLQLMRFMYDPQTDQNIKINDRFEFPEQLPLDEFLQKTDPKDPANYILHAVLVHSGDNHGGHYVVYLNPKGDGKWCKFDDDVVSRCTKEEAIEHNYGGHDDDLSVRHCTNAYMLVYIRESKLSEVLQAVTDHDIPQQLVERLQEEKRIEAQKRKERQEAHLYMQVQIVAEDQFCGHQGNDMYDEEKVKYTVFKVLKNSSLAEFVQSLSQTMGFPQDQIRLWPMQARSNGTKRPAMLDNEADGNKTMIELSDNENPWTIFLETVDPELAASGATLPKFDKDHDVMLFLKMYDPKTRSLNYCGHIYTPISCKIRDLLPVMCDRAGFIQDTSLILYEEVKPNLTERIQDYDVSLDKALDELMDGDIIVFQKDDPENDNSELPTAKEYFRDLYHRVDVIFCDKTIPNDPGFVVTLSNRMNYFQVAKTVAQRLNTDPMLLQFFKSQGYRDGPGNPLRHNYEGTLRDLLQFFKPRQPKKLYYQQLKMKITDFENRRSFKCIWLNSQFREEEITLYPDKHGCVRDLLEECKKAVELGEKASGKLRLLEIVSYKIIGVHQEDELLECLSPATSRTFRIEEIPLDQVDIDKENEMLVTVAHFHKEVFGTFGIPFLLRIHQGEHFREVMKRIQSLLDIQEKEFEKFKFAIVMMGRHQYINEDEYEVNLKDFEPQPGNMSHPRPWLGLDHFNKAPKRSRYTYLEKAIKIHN

Biological target: FLAG-tagged WT DEPTOR (Disheveled, Egl-10, and Pleckstrin domain-containing mechanistic target of rapamycin-interacting protein) (human) (UniProt Q8TB45)
Assay: affinity purification with mass spectrometry; tagged DEPTOR immunoprecipitated from MM cells after 4 h with MG-132 alone or drug 3g (1 uM) + MG-132; IgG as control for nonspecific binders; in-solution digestion, label-free LC-MS/MS

- binding: binds
Substance: ubiquitin-specific protease 7 (USP-7) deubiquitinase (from UniProt Q93009 1-1102) (enzyme)
